Data on 2 molecules can be found in article PMC4214753.

By UniProt entry, the sequences of proteins in these tests, tags left out.
UniProt Q9WTQ5: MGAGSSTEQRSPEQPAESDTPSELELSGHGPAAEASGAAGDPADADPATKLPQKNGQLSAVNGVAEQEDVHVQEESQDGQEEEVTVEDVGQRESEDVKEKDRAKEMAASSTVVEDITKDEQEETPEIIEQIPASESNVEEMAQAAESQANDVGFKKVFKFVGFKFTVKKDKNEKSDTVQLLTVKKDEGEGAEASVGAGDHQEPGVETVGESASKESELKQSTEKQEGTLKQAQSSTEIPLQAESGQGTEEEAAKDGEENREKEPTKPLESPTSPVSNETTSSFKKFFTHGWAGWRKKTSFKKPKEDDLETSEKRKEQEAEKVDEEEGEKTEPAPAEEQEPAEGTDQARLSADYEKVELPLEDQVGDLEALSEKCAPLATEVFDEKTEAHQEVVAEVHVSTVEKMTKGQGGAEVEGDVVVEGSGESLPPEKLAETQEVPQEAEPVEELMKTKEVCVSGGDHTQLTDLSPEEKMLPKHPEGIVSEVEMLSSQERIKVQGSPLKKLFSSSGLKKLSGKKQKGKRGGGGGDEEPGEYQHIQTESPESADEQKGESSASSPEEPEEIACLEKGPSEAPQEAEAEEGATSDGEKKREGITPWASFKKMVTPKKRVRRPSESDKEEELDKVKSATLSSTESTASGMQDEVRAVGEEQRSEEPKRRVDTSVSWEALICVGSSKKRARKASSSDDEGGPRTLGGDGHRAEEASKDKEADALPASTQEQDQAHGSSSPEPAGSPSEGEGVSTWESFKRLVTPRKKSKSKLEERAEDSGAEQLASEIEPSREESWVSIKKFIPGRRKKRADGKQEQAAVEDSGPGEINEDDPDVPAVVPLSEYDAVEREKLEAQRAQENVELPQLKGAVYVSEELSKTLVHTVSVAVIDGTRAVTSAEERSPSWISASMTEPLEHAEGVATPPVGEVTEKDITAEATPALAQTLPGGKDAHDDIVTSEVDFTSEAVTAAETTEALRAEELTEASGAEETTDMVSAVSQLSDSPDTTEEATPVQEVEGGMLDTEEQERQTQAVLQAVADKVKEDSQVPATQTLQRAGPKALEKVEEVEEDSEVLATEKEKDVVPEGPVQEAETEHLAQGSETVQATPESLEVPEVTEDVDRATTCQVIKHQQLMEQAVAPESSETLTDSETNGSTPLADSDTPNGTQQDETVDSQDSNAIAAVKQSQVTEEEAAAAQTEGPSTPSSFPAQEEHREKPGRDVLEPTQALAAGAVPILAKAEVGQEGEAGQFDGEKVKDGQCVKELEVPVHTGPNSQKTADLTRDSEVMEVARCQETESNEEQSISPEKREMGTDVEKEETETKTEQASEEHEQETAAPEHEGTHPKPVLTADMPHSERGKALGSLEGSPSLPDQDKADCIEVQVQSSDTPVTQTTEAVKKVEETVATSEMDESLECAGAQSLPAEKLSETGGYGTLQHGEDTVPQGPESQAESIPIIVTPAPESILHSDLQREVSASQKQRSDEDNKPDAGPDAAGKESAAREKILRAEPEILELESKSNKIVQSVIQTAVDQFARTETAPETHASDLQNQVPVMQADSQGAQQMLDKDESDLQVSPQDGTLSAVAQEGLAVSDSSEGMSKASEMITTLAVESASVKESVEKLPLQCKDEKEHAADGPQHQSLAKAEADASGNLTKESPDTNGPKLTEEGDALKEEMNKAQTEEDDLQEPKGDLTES
UniProt P60766: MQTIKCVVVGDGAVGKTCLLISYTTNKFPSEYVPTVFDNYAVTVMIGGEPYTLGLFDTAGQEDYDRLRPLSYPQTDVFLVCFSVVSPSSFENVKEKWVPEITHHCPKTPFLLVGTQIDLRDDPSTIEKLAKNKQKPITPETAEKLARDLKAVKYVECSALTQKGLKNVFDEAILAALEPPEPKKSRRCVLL

No constants are given. Whether binding was seen depends on the method and setting. Binding seen in cells or lysates may run through a third protein.

Assay [1] concerns the target SSeCKS (Src-Suppressed C Kinase Substrate) (mouse (endogenous in MEF)) (UniProt Q9WTQ5). The assay can be described thus: co-IP; lysate not stated; no figure.
Assay [2] shares this target. The assay can be described thus: co-IP; WT MEF lysates; no figure.

Cdc42 (from UniProt P60766 1-191): the binding result in assay [1] is “no binding”.

B1: Frabin (FGD1-related F-actin binding protein) (protein, UniProt Q91ZT5 1-766)
chain: MEESNPAPTSCTSKGKHSKVSDLISHFEGGSVLSSYIDLQKDSTMNLNIPQTLGQPGLTSSPPRKFLPQHSPQKQENDPDQTQGQHGCLANGVVAAQNQMECEDEKETTLSPEMAIQTAAASPDTHVLNGERNETITDSASSIANSHDENASDSSCRTPGTDLGLPSKEGEPGMDAELQERENGVNTMGLDTLDQHHEVKETNEQKLHKIATELLLTERAYVSRLDLLDQVFYCKLLEEANRGSFPAEMVNKIFSNISSINAFHSKFLLPELEKRMQEWETTPRIGDILQKLAPFLKMYGEYVKGFDNAVELVKTMTERVPQFKSVTEEIQKQKICGSLTLQHHMLEPIQRIPRYEMLLKDYLKKLSPDSPDWNDAKKSLEIISTAASHSNSAIRKMENLKKLLEIYEMLGEEEDIVNPSNELIKEGQILKLAARNTSAQERYLFLFNNMLLYCVPRFSLVGSKFTVRTRVGIDGMKIVETHNEEYPHTFQISGKERTLELQASSEQDKEEWIKALQESIDAFHQRHETFRNAIAKENDIPLEVSTAELGKRAPRWIRDNEVTMCMKCKESFNALTRRRHHCRACGHVVCWKCSDYKAQLEYDGGRLNKVCKDCYQIISGFTDSEEKKRRGILEIESAEVSGNSEVCSFLQYMEKSKPWQKIWCVIPKQDPLVLYMYGAPQDVRAQATIPLLGYVVDDMPKSADLPHSFKLTQSKSVHSFAADNEELKQKWLKIILLAVTGETPDGPSEHLATLNNLPGPKKKSEC
Consider B1, for which the binding result in assay [2] was “no binding”.
